# According to the supplement of paper PMC10849652:
# Amino acid sequences for entries named in this document (tags omitted). A change or cut given only in a name is not applied to a line headed by its entry.
# UniProt Q7LBC6: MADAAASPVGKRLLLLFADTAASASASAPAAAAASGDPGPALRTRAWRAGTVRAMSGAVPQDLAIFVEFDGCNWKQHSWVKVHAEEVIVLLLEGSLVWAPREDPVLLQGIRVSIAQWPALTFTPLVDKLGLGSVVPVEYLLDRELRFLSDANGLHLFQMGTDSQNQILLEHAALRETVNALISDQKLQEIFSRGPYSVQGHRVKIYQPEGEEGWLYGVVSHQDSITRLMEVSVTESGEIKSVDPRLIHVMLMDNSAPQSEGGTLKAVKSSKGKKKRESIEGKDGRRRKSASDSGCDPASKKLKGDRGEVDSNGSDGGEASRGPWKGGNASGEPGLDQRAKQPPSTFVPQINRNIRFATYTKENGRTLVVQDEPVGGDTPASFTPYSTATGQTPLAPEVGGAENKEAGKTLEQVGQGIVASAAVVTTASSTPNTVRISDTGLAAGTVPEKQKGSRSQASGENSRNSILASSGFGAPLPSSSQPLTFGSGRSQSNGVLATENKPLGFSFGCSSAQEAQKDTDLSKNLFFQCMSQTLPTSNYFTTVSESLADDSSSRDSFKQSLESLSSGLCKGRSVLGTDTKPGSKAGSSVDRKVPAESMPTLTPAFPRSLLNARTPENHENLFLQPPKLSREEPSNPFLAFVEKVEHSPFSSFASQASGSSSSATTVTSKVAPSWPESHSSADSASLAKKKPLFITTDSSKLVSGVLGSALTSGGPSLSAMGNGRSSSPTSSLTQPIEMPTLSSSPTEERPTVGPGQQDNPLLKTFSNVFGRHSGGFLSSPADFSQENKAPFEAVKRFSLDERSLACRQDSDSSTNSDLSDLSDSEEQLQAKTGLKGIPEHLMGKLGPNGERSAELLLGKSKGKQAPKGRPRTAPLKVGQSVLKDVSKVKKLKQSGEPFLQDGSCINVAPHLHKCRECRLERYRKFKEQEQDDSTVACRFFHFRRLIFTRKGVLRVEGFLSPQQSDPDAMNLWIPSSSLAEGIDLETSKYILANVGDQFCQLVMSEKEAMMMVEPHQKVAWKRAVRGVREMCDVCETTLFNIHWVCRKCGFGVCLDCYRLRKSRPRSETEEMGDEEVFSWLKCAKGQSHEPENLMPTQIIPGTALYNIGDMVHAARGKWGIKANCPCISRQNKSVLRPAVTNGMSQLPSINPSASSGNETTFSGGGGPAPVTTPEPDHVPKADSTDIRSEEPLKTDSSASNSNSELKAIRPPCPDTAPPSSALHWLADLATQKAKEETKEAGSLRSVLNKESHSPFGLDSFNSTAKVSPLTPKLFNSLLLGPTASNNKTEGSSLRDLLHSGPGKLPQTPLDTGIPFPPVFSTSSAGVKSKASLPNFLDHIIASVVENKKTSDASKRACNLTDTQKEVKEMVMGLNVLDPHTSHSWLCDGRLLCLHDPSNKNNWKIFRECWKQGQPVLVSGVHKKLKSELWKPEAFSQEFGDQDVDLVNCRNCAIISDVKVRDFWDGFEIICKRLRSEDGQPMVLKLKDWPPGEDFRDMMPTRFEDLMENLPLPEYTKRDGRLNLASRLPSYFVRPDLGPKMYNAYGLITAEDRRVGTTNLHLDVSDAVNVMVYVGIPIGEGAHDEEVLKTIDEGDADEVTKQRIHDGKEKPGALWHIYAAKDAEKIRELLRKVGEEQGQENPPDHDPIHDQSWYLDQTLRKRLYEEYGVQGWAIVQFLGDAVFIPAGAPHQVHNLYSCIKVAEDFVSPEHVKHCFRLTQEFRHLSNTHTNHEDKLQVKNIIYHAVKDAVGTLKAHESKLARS
# UniProt O60268: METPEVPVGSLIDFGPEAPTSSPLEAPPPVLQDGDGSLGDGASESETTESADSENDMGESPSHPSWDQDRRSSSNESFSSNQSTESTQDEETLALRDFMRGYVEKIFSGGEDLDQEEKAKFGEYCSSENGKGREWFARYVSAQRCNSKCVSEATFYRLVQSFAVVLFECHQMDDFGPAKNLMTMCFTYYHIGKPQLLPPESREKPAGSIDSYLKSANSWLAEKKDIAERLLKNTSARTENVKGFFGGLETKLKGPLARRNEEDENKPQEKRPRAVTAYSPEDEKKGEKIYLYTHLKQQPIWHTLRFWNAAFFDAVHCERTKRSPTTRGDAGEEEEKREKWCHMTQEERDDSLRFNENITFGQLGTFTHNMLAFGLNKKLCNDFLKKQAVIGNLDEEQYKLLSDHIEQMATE
# UniProt Q9H7Z6: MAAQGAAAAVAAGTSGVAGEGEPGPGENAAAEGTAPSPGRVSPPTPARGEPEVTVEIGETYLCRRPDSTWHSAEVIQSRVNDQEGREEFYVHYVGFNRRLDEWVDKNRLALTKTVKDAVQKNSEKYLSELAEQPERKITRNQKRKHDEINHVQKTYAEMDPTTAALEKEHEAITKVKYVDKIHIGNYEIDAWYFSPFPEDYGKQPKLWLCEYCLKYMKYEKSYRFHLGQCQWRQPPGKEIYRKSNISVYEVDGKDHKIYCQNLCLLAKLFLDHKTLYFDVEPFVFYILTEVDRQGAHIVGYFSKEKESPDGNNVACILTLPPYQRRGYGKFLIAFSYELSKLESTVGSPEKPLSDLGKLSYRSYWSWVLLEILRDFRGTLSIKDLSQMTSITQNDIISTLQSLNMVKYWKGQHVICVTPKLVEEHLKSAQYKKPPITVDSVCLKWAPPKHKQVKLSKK
# UniProt Q07666, whole entry, looked up: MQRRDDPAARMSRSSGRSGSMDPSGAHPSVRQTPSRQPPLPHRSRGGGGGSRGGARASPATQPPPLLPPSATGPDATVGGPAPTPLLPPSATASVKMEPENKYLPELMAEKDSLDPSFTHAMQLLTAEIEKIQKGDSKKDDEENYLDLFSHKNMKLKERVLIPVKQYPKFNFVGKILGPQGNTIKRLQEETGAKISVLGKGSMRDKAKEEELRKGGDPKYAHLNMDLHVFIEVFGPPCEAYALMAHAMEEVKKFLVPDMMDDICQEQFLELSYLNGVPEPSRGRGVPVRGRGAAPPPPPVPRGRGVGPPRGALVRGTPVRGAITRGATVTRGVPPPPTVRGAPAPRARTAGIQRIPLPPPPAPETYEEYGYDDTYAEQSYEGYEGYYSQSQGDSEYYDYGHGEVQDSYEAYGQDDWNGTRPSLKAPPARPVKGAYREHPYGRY
# UniProt O15554, whole entry, looked up: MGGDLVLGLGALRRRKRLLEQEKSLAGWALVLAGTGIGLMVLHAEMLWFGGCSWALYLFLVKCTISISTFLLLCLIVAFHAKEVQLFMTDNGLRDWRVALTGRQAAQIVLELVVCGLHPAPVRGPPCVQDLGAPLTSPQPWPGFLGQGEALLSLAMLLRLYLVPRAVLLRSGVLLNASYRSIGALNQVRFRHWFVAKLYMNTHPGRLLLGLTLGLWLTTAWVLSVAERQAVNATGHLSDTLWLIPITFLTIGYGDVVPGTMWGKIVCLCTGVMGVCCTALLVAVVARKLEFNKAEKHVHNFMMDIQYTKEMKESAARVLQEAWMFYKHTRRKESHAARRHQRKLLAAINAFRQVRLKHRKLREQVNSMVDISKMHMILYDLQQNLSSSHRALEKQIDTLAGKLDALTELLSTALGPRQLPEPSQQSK
# UniProt Q9H910: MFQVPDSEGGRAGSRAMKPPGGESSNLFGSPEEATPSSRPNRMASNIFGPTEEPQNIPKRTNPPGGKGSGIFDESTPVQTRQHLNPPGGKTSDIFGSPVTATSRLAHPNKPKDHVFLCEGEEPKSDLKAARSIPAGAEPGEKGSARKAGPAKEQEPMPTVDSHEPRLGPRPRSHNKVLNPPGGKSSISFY
# UniProt O43731: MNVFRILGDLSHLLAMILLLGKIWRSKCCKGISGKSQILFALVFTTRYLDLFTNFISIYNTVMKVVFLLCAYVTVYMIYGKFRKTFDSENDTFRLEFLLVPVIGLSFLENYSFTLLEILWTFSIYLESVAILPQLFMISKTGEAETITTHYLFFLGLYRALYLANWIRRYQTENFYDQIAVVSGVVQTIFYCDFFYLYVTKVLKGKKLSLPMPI
# UniProt Q1ED39: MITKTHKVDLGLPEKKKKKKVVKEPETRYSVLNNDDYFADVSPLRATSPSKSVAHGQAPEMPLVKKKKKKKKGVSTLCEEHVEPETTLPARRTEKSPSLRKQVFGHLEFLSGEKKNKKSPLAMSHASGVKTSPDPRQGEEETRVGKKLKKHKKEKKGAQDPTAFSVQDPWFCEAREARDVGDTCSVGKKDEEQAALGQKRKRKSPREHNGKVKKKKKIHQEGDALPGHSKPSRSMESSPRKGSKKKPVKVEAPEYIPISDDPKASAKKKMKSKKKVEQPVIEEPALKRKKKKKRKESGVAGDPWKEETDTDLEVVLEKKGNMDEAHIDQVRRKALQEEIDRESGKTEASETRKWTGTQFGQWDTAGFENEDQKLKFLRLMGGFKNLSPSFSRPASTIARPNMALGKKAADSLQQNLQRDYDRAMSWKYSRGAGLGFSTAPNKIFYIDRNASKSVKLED
# UniProt O60333: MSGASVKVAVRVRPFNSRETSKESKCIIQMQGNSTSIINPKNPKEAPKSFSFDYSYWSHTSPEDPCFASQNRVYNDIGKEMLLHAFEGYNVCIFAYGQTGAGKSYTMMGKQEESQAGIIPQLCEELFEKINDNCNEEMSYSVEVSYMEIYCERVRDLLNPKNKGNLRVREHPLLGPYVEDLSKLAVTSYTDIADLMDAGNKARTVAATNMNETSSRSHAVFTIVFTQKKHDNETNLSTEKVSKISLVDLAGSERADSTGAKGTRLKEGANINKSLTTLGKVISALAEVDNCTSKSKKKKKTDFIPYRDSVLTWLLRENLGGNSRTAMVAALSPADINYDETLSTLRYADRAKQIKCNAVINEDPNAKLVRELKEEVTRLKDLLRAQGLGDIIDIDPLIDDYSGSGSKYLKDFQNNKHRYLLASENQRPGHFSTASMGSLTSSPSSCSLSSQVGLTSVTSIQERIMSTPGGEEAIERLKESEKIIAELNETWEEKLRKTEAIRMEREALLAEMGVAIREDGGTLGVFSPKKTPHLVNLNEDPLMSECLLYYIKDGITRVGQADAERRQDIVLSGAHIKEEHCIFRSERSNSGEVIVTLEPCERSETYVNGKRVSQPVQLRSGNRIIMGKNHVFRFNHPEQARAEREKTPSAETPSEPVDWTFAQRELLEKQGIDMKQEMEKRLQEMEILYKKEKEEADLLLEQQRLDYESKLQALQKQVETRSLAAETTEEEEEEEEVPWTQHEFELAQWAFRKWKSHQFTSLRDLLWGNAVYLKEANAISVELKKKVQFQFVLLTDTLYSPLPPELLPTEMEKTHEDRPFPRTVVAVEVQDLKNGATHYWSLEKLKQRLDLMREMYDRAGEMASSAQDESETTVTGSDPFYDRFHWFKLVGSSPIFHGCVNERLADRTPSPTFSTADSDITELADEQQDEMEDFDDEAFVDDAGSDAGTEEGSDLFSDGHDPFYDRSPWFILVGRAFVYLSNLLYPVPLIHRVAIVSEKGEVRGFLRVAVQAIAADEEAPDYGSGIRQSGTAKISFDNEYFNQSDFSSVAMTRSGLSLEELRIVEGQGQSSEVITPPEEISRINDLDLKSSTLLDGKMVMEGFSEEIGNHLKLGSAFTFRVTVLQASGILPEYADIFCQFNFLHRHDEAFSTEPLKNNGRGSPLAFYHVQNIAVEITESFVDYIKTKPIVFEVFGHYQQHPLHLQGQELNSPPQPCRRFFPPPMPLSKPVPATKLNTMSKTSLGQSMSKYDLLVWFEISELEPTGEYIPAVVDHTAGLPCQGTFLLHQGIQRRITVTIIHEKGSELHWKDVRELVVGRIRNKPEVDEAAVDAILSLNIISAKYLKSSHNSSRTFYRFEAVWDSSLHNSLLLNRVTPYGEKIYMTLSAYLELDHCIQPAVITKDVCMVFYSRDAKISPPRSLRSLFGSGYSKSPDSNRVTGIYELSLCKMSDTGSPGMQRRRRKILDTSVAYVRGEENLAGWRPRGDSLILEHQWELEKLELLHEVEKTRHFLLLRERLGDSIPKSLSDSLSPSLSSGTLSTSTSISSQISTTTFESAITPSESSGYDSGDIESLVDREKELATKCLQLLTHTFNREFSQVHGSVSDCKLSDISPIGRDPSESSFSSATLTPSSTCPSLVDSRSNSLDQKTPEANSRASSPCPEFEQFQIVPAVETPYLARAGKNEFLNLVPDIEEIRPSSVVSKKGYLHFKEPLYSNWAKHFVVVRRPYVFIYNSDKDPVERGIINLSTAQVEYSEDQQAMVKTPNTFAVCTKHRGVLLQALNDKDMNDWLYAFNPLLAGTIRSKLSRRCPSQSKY
# Some of the results follow. Residues, ends and D or L forms follow the SMILES beside them. *: point of attachment. Cbz = O=C(OCc1ccccc1)*
# Experiments:
# Assay in all cases: log2 fold change, soluble protein after heating vs DMSO (PISA); higher = thermal stabilisation; K562 cells, 10 uM, 30 min; active = over 0.2 and 3.5 SD of the protein, either way, in both replicates (recomputed)
# [1] = compound: C#Cc1cccc(Nc2ncnc3cc(OCCOC)c(OCCOC)cc23)c1 [erlotinib]
# How it was run: (§1)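 K562 cells at 2×10^6 cells/mL were given 10 μM compound for 30 min. Aliquots then went through 3 min of heating across 48°C-58°C, were pooled, and were extracted in PBS with 0.5% NP-40 at 4°C, and the supernatant after 21,000xg for 90 min was quantified by TMTpro 16plex LC-MS/MS with channel sums equalised. Thermal stability relative to control samples, from duplicates, is given as log2 fold change.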
# [2] = compound: C/C(=N\NC(=O)C1=CC(=CC=C1)S(=O)(=O)N2CCOCC2)/C3=C(C=CC(=C3)Cl)O
# How it was run: as §1
# [3] = compound: C1=CC(=C(C=C1Cl)C2=NC3=NC=CN=C3C(=N2)NC4=CC=NC=C4)F
# How it was run: as §1
# [4] = compound: C1=CC(=CC=C1C2=NC3=C(N2)C=C(C=C3)C(=O)N)OC4=CC=C(C=C4)Cl
# How it was run: as §1
# [5] = compound: C1=CC2=C(C=CC(=C2)/C=C\3/C(=O)NC(=NCC4=CC=CS4)S3)N=C1
# How it was run: as §1
# [6] = compound: C1=CC2=NC=CN=C2C=C1/C=C/3\C(=O)NC(=O)S3
# How it was run: as §1
# [7] = compound: C1=CC=C(C=C1)C2=NC(=C(N2)C3=CC=NC=C3)C4=CC(=C(C=C4)Cl)O
# How it was run: as §1
# [8] = compound: C1=CC=C2C(=C1)C3=NNC4=CC=CC(=C43)C2=O
# How it was run: as §1
# [9] = compound: C1CCN(C1)C(=O)NC2=CC=CC(=C2)NC3=NC=C(C(=N3)NCCC4=CN=CN4)Br
# How it was run: as §1
# [10] = compound: C1CN(CCC1(CC2=CC=C(C=C2)Cl)N)C3=NC=NC4=C3C=CN4
# How it was run: as §1
# [11] = compound: C1COCCN1CCN2C3=CC=CC=C3N=C2NC(=O)C4=CC(=CC=C4)[N+](=O)[O-] [IRAK-1-4 Inhibitor I]
# How it was run: as §1
# [12] = compound: C=CC(=O)N1CCC[C@@H](n2nc(-c3ccc(Oc4ccccc4)cc3)c3c(N)ncnc32)C1 [ibrutinib]
# How it was run: as §1
# [13] = compound: CC(=O)c1cnc2ccc(-c3cc(Cl)c(O)c(Cl)c3)nc2c1N[C@H]1CC[C@H](CN(C)C)CC1
# How it was run: as §1
# [14] = compound: CC(C)(C)Cn1c(N)nc2ccc(-c3[nH]c(C(C)(C)C)nc3-c3ccc(F)cc3)nc21 [ralimetinib]
# How it was run: as §1
# [15] = compound: CC(C)(O)CC(=O)NCCn1ccc2ncnc(Nc3ccc(Oc4cccc(C(F)(F)F)c4)c(Cl)c3)c21
# How it was run: as §1
# [16] = compound: CC(C)C1=C2N=C(C=C(N2N=C1)NCC3=CC=CC=C3)NCCCCCCN
# How it was run: as §1
# [17] = compound: CC(C)C[C@@H](C=O)NC(=O)[C@H](CC(C)C)NC(=O)[C@H](CC(C)C)NC(=O)OCc1ccccc1
# How it was run: as §1
# [18] = compound: CC(C)N(C[C@H]1O[C@@H](n2cnc3c(N)ncnc32)[C@H](O)[C@@H]1O)[C@H]1C[C@@H](CCc2nc3cc(C(C)(C)C)ccc3[nH]2)C1 [pinometostat]
# How it was run: as §1
# [19] = compound: CC1=C(C2=C(C=C1)C(=O)C3=CC=CC=C3N2CCCN)C
# How it was run: as §1
# [20] = compound: CC1=C(C(CC(=O)N1)C2=CC=C(C=C2)C(F)(F)F)C(=O)NC3=C(C=C4C(=C3)C=NN4)F
# How it was run: as §1
Target,log2 fold change [1],log2 fold change [2],log2 fold change [3],log2 fold change [4],log2 fold change [5],log2 fold change [6],log2 fold change [7],log2 fold change [8],log2 fold change [9],log2 fold change [10],log2 fold change [11],log2 fold change [12],log2 fold change [13],log2 fold change [14],log2 fold change [15],log2 fold change [16],log2 fold change [17],log2 fold change [18],log2 fold change [19],log2 fold change [20]
KDM3B (UniProt Q7LBC6),inactive: 0.029,inactive: 0.051,inactive: 0.083,inactive: -0.019,inactive: 0,inactive: 0.043,inactive: 0.029,inactive: -0.015,inactive: -0.03,inactive: 0.008,inactive: -0.01,inactive: -0.04,inactive: -0.023,inactive: -0.018,inactive: -0.089,inactive: -0.047,inactive: 0.014,inactive: -0.011,inactive: -0.007,–
KIF14 (UniProt Q15058),inactive: 0.348,inactive: -0.254,inactive: -0.206,inactive: 0.169,inactive: 0.017,inactive: 0.128,–,inactive: 0.041,–,–,inactive: 0.084,inactive: 0.156,inactive: 0.034,–,inactive: -0.088,inactive: 0.047,–,inactive: 0.045,–,–
KIAA0513 (UniProt O60268),inactive: 0.161,inactive: 0.146,–,inactive: -0.203,inactive: 0,inactive: 0.165,–,inactive: 0.048,inactive: -0.111,inactive: 0.048,inactive: -0.015,inactive: 0.043,inactive: 0.015,–,–,inactive: -0.051,–,inactive: 0.113,inactive: -0.066,inactive: 0.016
KAT8 isoform 2 (UniProt Q9H7Z6),inactive: 0.046,inactive: 0.02,–,inactive: -0.062,inactive: 0.019,inactive: 0.058,inactive: -0.248,inactive: -0.064,inactive: -0.027,inactive: -0.003,–,inactive: -0.028,inactive: -0.04,inactive: 0.042,–,inactive: -0.029,inactive: 0.051,–,inactive: 0.069,inactive: 0.023
KHDRBS1 (UniProt Q07666),inactive: -0.023,inactive: 0.042,inactive: -0.076,inactive: 0.029,inactive: -0.088,inactive: 0.046,inactive: 0.027,inactive: 0.014,inactive: -0.029,inactive: -0.084,inactive: -0.069,inactive: 0.038,inactive: -0.002,inactive: 0.016,inactive: 0.073,inactive: -0.039,inactive: 0.017,inactive: -0.052,active: 0.621,–
KMT2C isoform 3 (UniProt Q8NEZ4),inactive: 0.038,inactive: -0.032,inactive: 0.006,inactive: 0.012,inactive: 0.078,inactive: 0.021,inactive: -0.194,inactive: -0.056,inactive: 0.003,inactive: 0.018,–,inactive: 0.007,inactive: -0.02,inactive: 0.074,inactive: -0.044,inactive: -0.06,inactive: 0.191,–,inactive: 0.049,–
KDM5D isoform 3 (UniProt Q9BY66),inactive: -0.036,inactive: -0.142,inactive: 0.067,inactive: -0.147,inactive: 0.121,inactive: -0.034,inactive: -0.005,inactive: 0.026,inactive: 0.035,inactive: 0.022,inactive: -0.042,inactive: -0.222,inactive: -0.05,inactive: -0.083,inactive: -0.155,inactive: 0.036,inactive: 0.114,inactive: -0.047,inactive: -0.103,–
KCNN4 (UniProt O15554),inactive: 0.035,inactive: -0.021,–,inactive: 0.097,inactive: -0.02,inactive: -0.044,inactive: 0.022,inactive: 0.046,inactive: -0.074,inactive: -0.041,inactive: 0.066,inactive: -0.202,inactive: -0.085,inactive: -0.051,–,inactive: -0.108,inactive: 0.061,inactive: 0.096,inactive: -0.005,inactive: -0.103
JPT2 isoform 2 (UniProt Q9H910),inactive: 0.021,inactive: -0.115,–,inactive: 0.01,inactive: -0.038,inactive: 0.034,–,inactive: -0.111,inactive: 0.072,inactive: 0.033,inactive: -0.025,inactive: 0.11,inactive: 0.086,–,–,inactive: 0.055,–,inactive: -0.029,inactive: 0.043,inactive: -0.137
KDELR3 (UniProt O43731),inactive: -0.067,inactive: -0.05,–,inactive: 0.049,inactive: 0.059,inactive: 0.139,–,inactive: -0.166,inactive: 0.066,inactive: -0.176,inactive: 0.083,inactive: -0.136,inactive: 0.09,–,–,inactive: -0.128,–,inactive: -0.126,inactive: 0.152,inactive: -0.013
KNOP1 (UniProt Q1ED39),inactive: 0.341,inactive: -0.445,–,inactive: -0.098,inactive: 0.012,inactive: -0.016,inactive: 0.059,inactive: -0.095,inactive: 0.05,inactive: -0.127,inactive: 0.011,inactive: 0.098,inactive: 0.017,inactive: 0.181,–,inactive: 0.148,inactive: 0.017,inactive: 0.246,inactive: -0.282,inactive: -0.206
KIF1B isoform 4 (UniProt O60333),inactive: 0.031,inactive: 0.095,inactive: 0.042,inactive: -0.059,inactive: 0.002,inactive: 0.018,inactive: -0.092,inactive: 0.078,inactive: -0.02,inactive: -0.091,inactive: -0.004,inactive: -0.017,inactive: 0,inactive: -0.029,inactive: -0.063,inactive: 0.002,inactive: 0.002,inactive: 0.061,inactive: -0.024,–
KIF2C (UniProt Q99661),inactive: 0.036,inactive: 0.09,inactive: 0.036,inactive: 0.021,inactive: 0.01,inactive: -0.004,inactive: 0.043,inactive: 0.019,inactive: -0.031,inactive: -0.103,inactive: -0.111,inactive: -0.033,inactive: -0.058,inactive: 0.028,inactive: -0.069,inactive: -0.065,inactive: 0.035,inactive: 0.031,inactive: 0.028,–
KLHL7 (UniProt Q8IXQ5),inactive: 0.042,inactive: 0.069,inactive: 0.054,inactive: 0.014,inactive: 0.227,inactive: 0.001,–,inactive: -0.101,–,–,–,inactive: 0.161,inactive: 0.041,–,inactive: -0.057,inactive: 0.164,–,–,–,inactive: -0.22

# Full records from above. Order of values: log2 fold change [1] | log2 fold change [2] | log2 fold change [3] | log2 fold change [4] | log2 fold change [5] | log2 fold change [6] | log2 fold change [7] | log2 fold change [8] | log2 fold change [9] | log2 fold change [10] | log2 fold change [11] | log2 fold change [12] | log2 fold change [13] | log2 fold change [14] | log2 fold change [15] | log2 fold change [16] | log2 fold change [17] | log2 fold change [18] | log2 fold change [19] | log2 fold change [20]
# KHDRBS1 (UniProt Q07666) is listed with inactive: -0.023 | inactive: 0.042 | inactive: -0.076 | inactive: 0.029 | inactive: -0.088 | inactive: 0.046 | inactive: 0.027 | inactive: 0.014 | inactive: -0.029 | inactive: -0.084 | inactive: -0.069 | inactive: 0.038 | inactive: -0.002 | inactive: 0.016 | inactive: 0.073 | inactive: -0.039 | inactive: 0.017 | inactive: -0.052 | active: 0.621 | –
# KDM5D isoform 3 (UniProt Q9BY66) is listed with inactive: -0.036 | inactive: -0.142 | inactive: 0.067 | inactive: -0.147 | inactive: 0.121 | inactive: -0.034 | inactive: -0.005 | inactive: 0.026 | inactive: 0.035 | inactive: 0.022 | inactive: -0.042 | inactive: -0.222 | inactive: -0.05 | inactive: -0.083 | inactive: -0.155 | inactive: 0.036 | inactive: 0.114 | inactive: -0.047 | inactive: -0.103 | –
